Measured values: paper PMC9129000, “RADA-dependent branch migration has a predominant role in plant mitochondria and its defect leads to mtDNA instability and cell cycle arrest”
Weaker means in comparison with the reference protein, sequence or condition of that experiment. Tags and fusion partners may be left off the protein sequences shown. For some assays here: For at least one entry, the source does not settle the construct or the ends of the probe. For some assays here: At least one verdict was read from the data and is not stated in words by the source.

How the values were obtained:
[1] = molecular target: T1, RADA (Arabidopsis thaliana) (UniProt F4K8X8); assay: EMSA; settings: 20 mM Tris-HCl pH 7.5, 50 mM KCl, 5 mM MgCl2, 0.5 mM EDTA, 10% glycerol, 1 mM DTT, protease inhibitors; 20 C, 20 min; 8 or 4.5% PAGE in TBE at 4 C; recombinant protein; residues 49-627; protein details: N-terminal His (pET28a); label: 5'-32P on sense strand
T1 sequence (looked up): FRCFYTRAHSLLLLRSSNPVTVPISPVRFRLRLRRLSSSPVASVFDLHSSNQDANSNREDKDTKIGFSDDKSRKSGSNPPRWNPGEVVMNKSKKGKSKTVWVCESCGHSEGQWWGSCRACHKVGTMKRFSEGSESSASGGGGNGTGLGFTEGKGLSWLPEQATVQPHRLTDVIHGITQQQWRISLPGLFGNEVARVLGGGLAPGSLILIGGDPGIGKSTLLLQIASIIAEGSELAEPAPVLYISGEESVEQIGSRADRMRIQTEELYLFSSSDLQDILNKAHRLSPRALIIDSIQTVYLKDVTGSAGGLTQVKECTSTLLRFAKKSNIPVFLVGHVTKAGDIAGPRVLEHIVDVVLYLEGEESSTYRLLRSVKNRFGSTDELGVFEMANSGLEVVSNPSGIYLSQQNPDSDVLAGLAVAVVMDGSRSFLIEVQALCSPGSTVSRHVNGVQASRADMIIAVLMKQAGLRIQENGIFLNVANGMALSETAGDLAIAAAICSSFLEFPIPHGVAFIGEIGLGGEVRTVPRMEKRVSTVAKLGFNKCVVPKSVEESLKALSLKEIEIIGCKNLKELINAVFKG

[2] = molecular target: T1, RADA (Arabidopsis thaliana); assay: competition with a labelled probe; settings: less efficient competitor than homologous 30-mer; 20 mM Tris-HCl pH 7.5, 50 mM KCl, 5 mM MgCl2, 0.5 mM EDTA, 10% glycerol, 1 mM DTT, protease inhibitors; 20 C, 20 min; 8 or 4.5% PAGE in TBE at 4 C; recombinant protein; residues 49-627; protein details: N-terminal His (pET28a); single-stranded DNA

Sequence | binding result [1] | binding result [2]
GACGCTGCCGAATTCTACCAGTGCCTTGCTAGGACATCTTTGCCCACCTGCAGGTTCACCC (double strand) [EMSA dsDNA] | binds more weakly | –
GACGCTGCCGAATTCTACCAGTGCCTTGCTAGGACATCTTTGCCCACCTGCAGGTTCACCC / ATCGATAGTCGGATCCTCTAGACAGCATGTCCTAGCAAGGCACTGGTAGAATTCGGCAGCGT [EMSA fork] | binds | –
AAAAAAAAAAAAAAAAAAAAAAAAAAAAAA [poly-dA 30-mer] | – | binds more weakly
GACGCTGCCGAATTCTACCAGTGCCTTGCTAGGACATCTTTGCCCACCTGCAGGTTCACCC / GGGTGAACCTGCAGGTGGGCAAAGATGTCC [EMSA 5' overhang] | binds | –
GACGCTGCCGAATTCTACCAGTGCCTTGCTAGGACATCTTTGCCCACCTGCAGGTTCACCC / TAGCAAGGCACTGGTAGAATTCGGCAGCGTC [EMSA 3' overhang] | binds | –
